Values quoted from earlier work, collected in article PMC9583845, “Characterization of the chicken melanocortin 5 receptor and its potential role in regulating hepatic glucolipid metabolism” (Frontiers in Physiology, 2022).

Settings: endogenous, cited from earlier work; for concentration of plasma ACTH: 2022
[1] = 4–6 days chicks, two-site sequential chemiluminescent immunometric assay, ref Gaston et al., 2017

## H-SYSMEHFRWGKPVGRKRRPIKVYPNGVDEESAESYPMEF-OH [ACTH1-39]
[1]
  ACTH in the plasma: about 10 pg/ml
  ACTH in the plasma (molar): ~2.2 pmol/L
Hatched chicks, ref Okur et al.
  concentration of plasma ACTH: about 12 pg/ml
three-week-old male chicks, ref Liu et al.
  concentration of plasma ACTH: 7 to 18 pg/mL

Read-outs that look alike come from different tables or passages of the source.
